PubChem BioAssay AID743454 | Peter MacCallum Cancer Centre – 2014

Aim: 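Search for knock-downs that restore vorinostat killing in resistant colon cancer cells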 (primary screen)
System: human HCT116-VR colon cancer cells, selected for vorinostat resistance
Knock-down reagent: siRNA pool against human genes, 40 nM siRNA pool
Duration: vorinostat for 24 h, read-out about 72 h after transfection
Challenge: vorinostat at 2.5 µM final
Measured: 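Two measures, CellTiter-Fluor viability and luminescent caspase 3/7 activity, each as fold change against same-plate mock wells, mean of duplicates, then screen-wide robust z-score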
Direction: viability robust z-score: higher = more viable cells than screen typical; caspase robust z-score: higher = more caspase 3/7 activity than screen typical
Call rule: 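Hits are knock-downs in viability class RV1/RV2 or caspase class CA1/CA2, excluding ones that killed cells in the no-drug cell-count arm; hits then retested with single siRNAs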
This is one part, drawn at random, of about 18,000 reagents tested. 450 of all reagents (2.5%) count as active. 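Single biological run; no consistent viability z cut-off exists, so the class columns, not z-scores, define the calls.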 A number with no mark means an inactive call.

The opening 2 records, to show the layout:
gene,PubChem SID,viability hit class,caspase hit class,viability robust z-score,caspase robust z-score
PROSER2,SID134322237,no change,no change,0.19,-1.04
NOMO3,SID135625132,no change,no change,-0.46,-0.58

Results, from the start:
gene,PubChem SID,viability hit class,caspase hit class,viability robust z-score,caspase robust z-score
PROSER2,SID134322237,no change,no change,0.19,-1.04
NOMO3,SID135625132,no change,no change,-0.46,-0.58
VPS41,SID152155592,no change,no change,-0.36,-0.26
CGREF1,SID152149791,no change,no change,1.17,-1.13
DRG2,SID134315607,no change,no change,0.08,-0.69
AREG,SID134321371,no change,no change,-2.53,3.09
MAGEB10,SID152147544,no change,no change,-0.66,-0.16
GPKOW,SID134319182,no change,no change,-2.15,4.64
SLX1A,SID135625398,no change,no change,-0.34,4.84
NCBP1,SID152151862,no change,no change,-1.06,0.32
COL5A2,SID152148631,no change,no change,0.37,-0.9
KRTAP26-1,SID134329410,no change,no change,0.99,0.62
FCRL6,SID152150306,no change,no change,1.11,0.08
PYCR3,SID135622705,no change,no change,-0.99,0.68
VDAC2,SID134323532,no change,no change,-2.64,4.53
PRH1,SID152152289,no change,no change,0.12,2.51
HPS4,SID152154977,no change,no change,-0.76,0.34
PDLIM4,SID134319433,no change,no change,0.93,0.89
CSHL1,SID135622023,no change,no change,0.42,0.4
MYBL1,SID152151203,no change,no change,-0.7,3.5
BTBD2,SID152156262,no change,no change,0.02,3.61
MAGEA4,SID152150544,no change,no change,-1.02,-0.9
SNX6,SID135623350,no change,no change,-0.92,-0.35
OR8B3,SID135624848,no change,no change,0.71,-0.52
MTMR8,SID134312974,no change,no change,-0.21,1.53
KIF9,SID135620919,no change,no change,0.23,-0.43
ZNF426,SID134318472,no change,no change,0.42,-0.22
BTN1A1,SID134315926,no change,no change,0.6,-1.03
DPH5,SID152150627,no change,no change,-0.06,0.4
DEXI,SID134323237,no change,no change,-0.25,-1.17
PLAGL2,SID152147025,no change,no change,1.21,0.09
CARD14,SID135620821,no change,no change,-1.55,2.8
ARL13A,SID152149210,no change,no change,1.08,-1.09
THOP1,SID134311467,no change,no change,-0.24,-0.05
SMPD4,SID135624027,no change,no change,1.4,-1.33
GRTP1,SID135622741,no change,no change,-0.15,-0.68
PDE4D,SID134310616,no change,no change,1.84,1.25
DIXDC1,SID152153121,no change,no change,-0.32,-0.26
PLCG1,SID135620700,no change,no change,0.7,0.72
